The values below are quoted from earlier work in patent publication US20090221984A1 (priority 2008, published 2009).

The chains behind the UniProt entries cited, without tags or fusion partners.
UniProt P05177, whole entry: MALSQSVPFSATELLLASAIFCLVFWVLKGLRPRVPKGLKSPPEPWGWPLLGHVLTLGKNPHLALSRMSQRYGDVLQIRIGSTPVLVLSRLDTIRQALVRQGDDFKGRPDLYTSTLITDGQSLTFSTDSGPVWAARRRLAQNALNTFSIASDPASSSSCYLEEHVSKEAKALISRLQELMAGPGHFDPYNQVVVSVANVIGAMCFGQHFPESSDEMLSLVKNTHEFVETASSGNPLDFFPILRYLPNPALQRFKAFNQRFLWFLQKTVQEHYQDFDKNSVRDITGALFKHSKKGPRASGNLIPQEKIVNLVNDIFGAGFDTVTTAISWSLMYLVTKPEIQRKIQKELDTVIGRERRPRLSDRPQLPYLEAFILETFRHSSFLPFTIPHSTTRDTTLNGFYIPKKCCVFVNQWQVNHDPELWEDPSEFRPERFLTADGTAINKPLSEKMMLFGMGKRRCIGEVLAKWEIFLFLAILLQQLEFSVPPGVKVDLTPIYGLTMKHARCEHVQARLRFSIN

This series has as its target CYP1A2 (Homo sapiens, UniProt P05177). To be noted: by CYP1A2 (minor extent CYP3A4) to monoethylglycinexylidide and glycinexylidide.

As to `CCN(CC)CC(=O)Nc1c(C)cccc1C` [Lidocaine], the “fraction metabolized in the liver” value is on record as “approximately 90%”.
